Results: publication PMC4286722
The exact form of at least one protein or probe is not confirmed. At least one result comes from cells or an extract, where the contact may be indirect. A weaker result is weaker than the reference pair of the same experiment.

By UniProt entry, the sequences of proteins in these tests, tags left out.
UniProt O18381, whole entry R37P: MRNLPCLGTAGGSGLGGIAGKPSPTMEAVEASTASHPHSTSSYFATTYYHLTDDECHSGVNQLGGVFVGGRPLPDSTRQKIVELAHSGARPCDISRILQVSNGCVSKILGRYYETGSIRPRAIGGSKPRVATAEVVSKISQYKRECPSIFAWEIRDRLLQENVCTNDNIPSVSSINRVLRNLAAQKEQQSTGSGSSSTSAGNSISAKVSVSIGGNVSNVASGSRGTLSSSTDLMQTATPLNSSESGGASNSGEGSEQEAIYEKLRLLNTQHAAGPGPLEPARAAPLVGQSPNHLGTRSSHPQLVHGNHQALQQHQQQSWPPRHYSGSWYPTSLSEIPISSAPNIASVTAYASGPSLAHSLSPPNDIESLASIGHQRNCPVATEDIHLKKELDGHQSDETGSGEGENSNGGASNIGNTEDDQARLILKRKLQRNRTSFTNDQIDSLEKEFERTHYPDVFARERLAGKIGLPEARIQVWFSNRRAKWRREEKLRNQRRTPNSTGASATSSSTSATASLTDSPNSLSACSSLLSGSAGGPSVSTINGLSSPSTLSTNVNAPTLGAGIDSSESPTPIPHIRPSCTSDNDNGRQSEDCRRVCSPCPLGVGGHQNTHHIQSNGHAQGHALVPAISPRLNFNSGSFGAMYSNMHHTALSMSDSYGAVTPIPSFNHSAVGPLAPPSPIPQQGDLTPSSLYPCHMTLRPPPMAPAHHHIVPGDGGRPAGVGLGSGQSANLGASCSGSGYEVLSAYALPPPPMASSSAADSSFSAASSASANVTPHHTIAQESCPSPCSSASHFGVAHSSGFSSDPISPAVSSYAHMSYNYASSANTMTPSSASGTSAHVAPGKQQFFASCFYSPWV

Target: Eyeless (Ey) WT (UniProt O18381)
Assay: EMSA
Details: Ey alone, very weak binding; Embryo extract in lysis buffer (500 mM NaCl, 1% Triton X-100, 50 mM Tris pH 6.0, protease inhibitors, 10 mM PMSF), 3 ul used; 4% native PAGE in 0.5x TBE; protein in a lysate after overexpression; label: 32P

**Q.** Does “GATACAGTTTTCCAGCTCATTTGCTTGTAATTGGGCACCAA (double strand) [Ey2 (WT), Ato 3' enhancer (3.6BB)]” bind?
**A.** binds more weakly
